Source: PubChem BioAssay AID602196 (INSERM, 2012)

- Test: 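Genes whose knock-down alters cisplatin killing of lung cancer cells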
- System: human A549 lung cancer cells
- Reagents: siRNA pair against human genes
- Duration: 48 h transfection before cisplatin; time from cisplatin to read-out not stated
- Treatment: cisplatin at a dose killing half of control-siRNA cells; exact dose and duration not given
- Read-out: 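Cisplatin cell death as a shift from the 50% death seen with control siRNA; siRNAs toxic or growth-blocking alone scored 0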
- Reading the numbers: two-siRNA summed score (-2 to +2): higher = both siRNAs protect from cisplatin killing; -2 means both sensitise
- Hit rule: 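siRNAs harmful alone (LDH or WST-1) get 0; others get +1 for less and -1 for more cisplatin killing; genes are active when the two siRNAs give the same sign, summing to ±2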
- Calls: active = both siRNAs shift cisplatin killing the same way; inactive = no consistent shift, or siRNA harmful alone
In all, the deposit lists about 23,000 reagents; this is an unselected part. 455 of all reagents (2%) count as active. 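Active includes both protection and sensitisation; some change values fall well beyond the stated -50 to +50 range.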 Further read-outs or replicates are left out here. Reagent sequences are not shown. Not given: the amount of reagent.

| Target gene | two-siRNA summed score (-2 to +2) | activity call |
| --- | --- | --- |
| GLYATL1 (GeneID 92292) | 0 | inactive |
| ZNF565 (GeneID 147929) | 0 | inactive |
| LOC441305 | 0 | inactive |
| RBAK (GeneID 57786) | 0 | inactive |
| DKFZP434B172 | 0 | inactive |
| URI1 (GeneID 8725) | 1 | inactive |
| GTF2A2 (GeneID 2958) | 1 | inactive |
| XRCC5 (GeneID 7520) | 0 | inactive |
| RNASE1 (GeneID 6035) | 0 | inactive |
| CTSK (GeneID 1513) | 0 | inactive |
| LOC23117 | 0 | inactive |
| OLR1 (GeneID 4973) | -1 | inactive |
| LOC388732 | 0 | inactive |
| ENTPD1 (GeneID 953) | 0 | inactive |
| IPO9 (GeneID 55705) | 0 | inactive |
| GRK1 (GeneID 6011) | 1 | inactive |
| LOC441519 | 0 | inactive |
| UPK3B (GeneID 105375355) | 0 | inactive |
| PARP1 (GeneID 142) | 1 | inactive |

Records above whose gene name begins with R or r (2):
| Target gene | two-siRNA summed score (-2 to +2) | activity call |
| --- | --- | --- |
| RBAK (GeneID 57786) | 0 | inactive |
| RNASE1 (GeneID 6035) | 0 | inactive |

The results go on:
| Target gene | two-siRNA summed score (-2 to +2) | activity call |
| --- | --- | --- |
| RAPGEF2 (GeneID 9693) | 0 | inactive |
| HSD17B4 (GeneID 3295) | -1 | inactive |
| MYG1 (GeneID 60314) | 0 | inactive |
| FIGLA (GeneID 344018) | 0 | inactive |
| CDK14 (GeneID 5218) | -1 | inactive |
| S1PR1 (GeneID 1901) | 0 | inactive |
| ZSCAN25 (GeneID 221785) | 0 | inactive |
| RBBP6 (GeneID 5930) | 0 | inactive |
| CIAO1 (GeneID 9391) | 0 | inactive |
| KCNB2 (GeneID 9312) | 0 | inactive |
| RTTN (GeneID 25914) | 0 | inactive |
| PALS1 (GeneID 64398) | 0 | inactive |
| DNM1P46 (GeneID 196968) | -1 | inactive |
| ACY1 (GeneID 95) | 1 | inactive |
| CEP89 (GeneID 84902) | 0 | inactive |
| FNDC3A (GeneID 22862) | 1 | inactive |
| LOC401445 (retired record) (GeneID 401445) | 0 | inactive |
| CRX (GeneID 1406) | 0 | inactive |
| CYP2A6 (GeneID 1548) | 0 | inactive |
| SERPINA9 (GeneID 327657) | 0 | inactive |
